# Among all 330,000 compounds or so, about 7,700 (2.3%) were called active. Inconclusive results, whose numbers are uncertain, are shown with a selection of clear calls. Calls come from the whole dose curve; as a rule, active = well fitted inhibition curve with a large enough effect; inconclusive = small, poorly fitted or top-dose-only effect, or effect the other way; inactive = flat fitted curve, though single readings scatter. Where the call is inconclusive, the potency comes from a doubtful curve fit.
# Assay: qHTS screen for small molecules that inhibit ELG1-dependent DNA repair in human embryonic kidney (HEK293T) cells expressing luciferase-tagged ELG1; note: nearly all actives have a fitted effect of over 55% in size
# Settings: HEK293T ELG1-luciferase reporter, luminescence, 16 h, DNA damage induced by 5-fluorouridine; series mostly up to 46.1 µM
# In short: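 Cells (2,000 per well) received 5-fluorouridine plus test compound or DMSO and were incubated 16 hr at 37 °C, 5% CO2. Luciferase activity was read by luminescence 30 min after ONE-Glo addition; signal suppression marked inhibition of damage-induced ELG1 function.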
# Potency is the fitted concentration of half-maximal effect.
row,Compound,Potency
1,O=C(C1CCN(CC2CC=CCC2)CC1)N(CCc1ccccc1)Cc1ccccc1 (stereo not drawn),"inconclusive: 20.6 µM [inhibitor, partial curve, poor fit]"
2,COc1ccc(C)cc1NCc1cc(=O)oc2cc(-c3ccccc3)c(O)cc12,"inconclusive: 6.51 µM [activator, partial curve, poor fit]"
3,C=CCn1c(O)c(C=Nc2ccccc2)sc1=S,"inconclusive: 14.6 µM [activator, partial curve]"
4,Cc1cc(NS(=O)(=O)c2ccc(NC(=O)COc3c(C)cc(Br)cc3C)cc2)no1,inactive
5,C/C(=N\NC(=O)c1ccc(N/N=C(\C)c2ccncc2)cc1)c1ccncc1,active: 23.1 µM
6,COC(=O)c1cccc(NC(=O)CCc2c(C)noc2C)c1,inactive
7,CCc1cccc(CC)c1-n1c(SCc2cc(=O)n3ccsc3n2)nnc1-c1cccnc1,"inconclusive: 4.61 µM [activator, partial curve, poor fit]"
8,CCN(CC)CCn1c2ccccc2c2nc3ccccc3nc21,"inconclusive: 4.61 µM [activator, single point]"
9,CC(=O)Nc1ccc(S(=O)(=O)N2CCN(Cc3cccs3)CC2)cc1,"inconclusive: 29.1 µM [inhibitor, partial curve, poor fit]"
10,Cc1cc(-c2nn(-c3ccccc3F)cc2CN2CCN(c3ccccn3)CC2)c(C)s1,inactive
11,CCS(=O)(=O)c1ccc(-c2csc(-c3ccccc3)n2)c(Cl)c1Cl,inactive
12,S=c1nc(-c2ccccc2)n(CCCN2CCOCC2)c2c1CCCC2,inactive
13,O=c1ccccn1CCOc1ccc(Cl)cc1,"inconclusive: 5.8 µM [activator, partial curve]"
14,O=C(Cn1cc2c(n1)CCCCC2)N1CCCCC1,"inconclusive: 14.6 µM [activator, partial curve]"
15,O=[N+]([O-])c1cccc(-c2cn3ccccc3n2)c1,inactive
16,CC(Sc1nnc(Nc2ccccc2)s1)C(=O)NC1CCCc2ccccc21 (stereo not drawn),"inconclusive: 25.9 µM [inhibitor, single point]"
17,O=C(CSc1nnc(-c2ccncc2)o1)Nc1cc(F)ccc1F,"inconclusive: 9.2 µM [activator, partial curve]"
18,COC(=O)[C@H](Cc1ccccc1)NC(=O)C1CCN(C(=O)[C@H](C)NS(=O)(=O)c2ccc(C)cc2)CC1,inactive
19,COCC(=O)N(Cc1ccccc1)c1ccccn1,inactive
20,O=C(N/N=C/C(Br)=C/c1ccccc1)c1n[nH]c2c1CCC2,"inconclusive: 5.8 µM [activator, partial curve]"
21,Oc1cnc2ccccc2c1CN1CCOCC1,"inconclusive: 18.4 µM [inhibitor, single point]"
22,O=C(Nc1ccc2c(c1)CCC2)c1cnc(Cl)c(Cl)c1,"inconclusive: 23.1 µM [activator, partial curve]"
23,CCOC(=O)Cc1cnc(NC(=O)CSc2nc(C)cc(C)n2)s1,inactive

row,Compound,Potency
1,Cc1ccc(OCC(=O)OCC(=O)N2c3ccccc3CC2C)cc1C (stereo not drawn),"inconclusive: 31.6 µM [activator, single point]"
2,COc1ccc(/C=N/N=C2\SC(CC(=O)O)C(=O)N2c2ccccc2)c(OC)c1 (stereo not drawn),inactive
3,Cc1cc(N2O[C@H]3C=C[C@@H]2C3)no1,"inconclusive: 20.6 µM [activator, partial curve, poor fit]"
4,Cc1csc(SCC(=O)Nc2nccs2)n1,"inconclusive: 4.61 µM [activator, partial curve, poor fit]"
5,O=c1[nH]cnc2c1C(c1ccc(Cl)cc1)c1c(nc[nH]c1=O)O2,"inconclusive: 29.1 µM [inhibitor, single point]"
6,Cc1ccccc1/C=C\c1nc2ccccc2c(=O)n1Cc1ccccc1,active: 29.1 µM
7,O=C(Nc1ccc2c(c1)oc1ccccc12)c1cccnc1,"inconclusive: 3.66 µM [activator, full curve, poor fit]"
8,CCN(CC)C(=O)c1sc(NC(=O)c2ccc3c(c2)OCO3)c(C(N)=O)c1C,"inconclusive: 2.31 µM [activator, partial curve, poor fit]"
9,Cc1ccc(C2=NNC(=O)C(c3c[nH]c4ccccc34)C2)cc1 (stereo not drawn),"inconclusive: 23.1 µM [inhibitor, single point]"
10,COc1cccc2c1cc1c(=O)n(CC(=O)NCCCN3CCCCC3)nc(C)n12,"inconclusive: 18.3 µM [activator, partial curve, poor fit]"
11,O=C(NC1CCCC1)C(=O)c1c[nH]c2ccccc12,"inconclusive: 23.1 µM [activator, single point]"
12,O=C(c1ccc(N2CCCC2)c([N+](=O)[O-])c1)N1CCN(S(=O)(=O)c2ccc(Cl)cc2)CC1,"inconclusive: 23.1 µM [inhibitor, single point]"
13,CNC(=S)N/N=C/c1ccc(-c2ccc(C(=O)O)cc2)o1,"inconclusive: 23.1 µM [activator, partial curve]"
14,O=C(CNC(=O)c1ccc(Cl)cc1Cl)OCc1nc2ccccc2s1,"inconclusive: 29.1 µM [activator, single point]"
15,COc1cc(SC)ccc1C(=O)Nc1cccc(S(=O)(=O)NC2=NCCCCC2)c1,"inconclusive: 29.1 µM [inhibitor, single point]"
16,COc1cccc2cc(C(=O)Nc3ccc(F)cc3)c(=Nc3ccc(C(=O)O)cc3)oc12,"inconclusive: 16.4 µM [activator, partial curve]"
17,NC(=O)CCc1nc2cc(C(F)(F)F)ccc2n(Cc2ccccc2)c1=O,inactive
18,c1ccc(CNc2nc(N3CCOCC3)nc(N3CCOCC3)n2)cc1,"inconclusive: 25.9 µM [inhibitor, partial curve]"
19,COc1ccccc1NC(CC(=O)c1ccccc1)C(=O)OCC(=O)c1ccc(F)cc1 (stereo not drawn),"inconclusive: 4.11 µM [activator, partial curve]"
20,O=C(NCc1cccnc1)C(=O)C1C(=O)Nc2ccccc21 (stereo not drawn),inactive
21,O=C(NC1CCCCC1)C1CC(=O)N(c2ccccc2)C1 (stereo not drawn),inactive
22,Cc1cc(C)c(S(=O)(=O)CCC(C)C)c(=O)[nH]1,inactive
23,Cc1cccc2c1N(CCOc1ccccc1)C(=O)C2=O,"inconclusive: 7.3 µM [activator, partial curve, poor fit]"

row,Compound,Potency
1,Cc1sc2c(c1C)CN(CCN1CCOCC1)CN2C(=O)c1ccccc1,"inconclusive: 23.1 µM [activator, partial curve]"
2,CN(C)CCCN(C(=O)c1ccco1)c1nc2ccc(Br)cc2s1,"inconclusive: 23.1 µM [activator, partial curve, poor fit]"
3,CCOc1cc(CNCc2cccs2)ccc1OCC(=O)NC(C)(C)C,"inconclusive: 32.6 µM [inhibitor, single point]"
4,CCc1ccc(NC(=O)CC2C(=O)N(c3ccc(C)cc3)C(=O)N2CCc2ccncc2)cc1 (stereo not drawn),"inconclusive: 1.16 µM [inhibitor, single point]"
5,COc1ccc(-c2cc3ccccc3oc2=O)cc1NC(=S)NC(=O)c1ccc2c(c1)OCCO2,"inconclusive: 4.11 µM [activator, single point]"
6,O=C(NNC(=O)C1[C@H]2CCCC[C@@H]12)Nc1cccc2ccccc12 (stereo partly drawn),active: 25.9 µM
7,CCC(C(=O)NCCC1=CCCCC1)n1nc(C)c2c(C)n(-c3ccccc3)nc2c1=O (stereo not drawn),inactive
8,COc1cc(C2=NOC(C(=O)N3CCN(c4ccc(F)cc4)CC3)C2)cc(OC)c1OC (stereo not drawn),"inconclusive: 29.1 µM [inhibitor, single point]"
9,COc1ccccc1NS(=O)(=O)c1ccc(C)c(C(=O)NCC(c2ccco2)N(C)C)c1 (stereo not drawn),inactive
10,O=C(C1CCCN(S(=O)(=O)c2cccc3nsnc23)C1)N1CCc2ccccc2C1 (stereo not drawn),active: 16.4 µM
11,CC1CCC(NC(=O)CCn2ccc3cc(S(=O)(=O)N4CCCC4)ccc32)CC1 (stereo not drawn),inactive
12,CCc1cc2c(=O)c(-c3nc4ccccc4n3C)c(C)oc2c(CN2CCCCC2)c1O,"inconclusive: 1.3 µM [activator, partial curve]"
13,O=C(NCc1cccc(F)c1)c1cccc2c1C(=O)c1ccc(N3CCOCC3)cc1S2(=O)=O,"inconclusive: 5.17 µM [inhibitor, single point]"
14,CCCCn1c(=O)[nH]c2nc3cc(NC(C)=O)ccc3nc2c1=O,"inconclusive: 20.6 µM [activator, single point]"
15,COc1ccc(CCN(C)Cc2ccc(OC)c(OCc3ccccc3)c2)cc1OC,inactive
16,C/C(=N\NC(=O)c1ccccc1O)C1C(=O)c2ccccc2C1=O,"inconclusive: 13 µM [activator, partial curve]"
17,O=C(CN1CCN(c2ccc(O)cc2)CC1)Nc1cc(S(=O)(=O)N2CCCC2)ccc1Cl,active: 23.1 µM
18,Cc1cc(OCC(=O)NCc2ccccn2)c2c(C)c(Cc3ccccc3)c(=O)oc2c1,"inconclusive: 18.3 µM [inhibitor, partial curve, poor fit]"
19,COc1cccc(NC(=O)c2nc(S(C)(=O)=O)ncc2Cl)c1,"inconclusive: 6.51 µM [activator, single point]"
20,COc1ccc(N(CC(=O)NCCSc2ccccn2)S(=O)(=O)c2ccccc2)cc1Cl,"inconclusive: 25.9 µM [inhibitor, single point]"
21,COc1ccc2nc(NC(=O)C(NS(=O)(=O)c3cccs3)C(C)C)sc2c1 (stereo not drawn),"inconclusive: 6.51 µM [inhibitor, partial curve]"
22,Cc1ccc2c(c1)[C@@H]1[C@H](CO2)[C@H](c2ccccc2)[C@@]2(C)C(=O)N[C@H](C)C(=O)N12,inactive

# Random excerpt: three compounds from above, in no set order.
row,Compound,Potency
18,Cc1cc(OCC(=O)NCc2ccccn2)c2c(C)c(Cc3ccccc3)c(=O)oc2c1,"inconclusive: 18.3 µM [inhibitor, partial curve, poor fit]"
6,O=C(NNC(=O)C1[C@H]2CCCC[C@@H]12)Nc1cccc2ccccc12 (stereo partly drawn),active: 25.9 µM
12,CCc1cc2c(=O)c(-c3nc4ccccc4n3C)c(C)oc2c(CN2CCCCC2)c1O,"inconclusive: 1.3 µM [activator, partial curve]"

# Source: PubChem BioAssay AID504467 (National Center for Advancing Translational Sciences (NCATS), 2011)
